± gives the standard deviation. The list shows a part of the results, in another mix than the full data. Many of these values have a large error.
These sequences were tested on EfPiwi piRISC loaded with piRNA #1 (26 nt) (assay: pre-steady-state target cleavage rate (min^-1); guide: piRNA #1 5'p-UGAGGUAGUAGGUUGUAUAGUAUCCA; MIWI and MILI are mouse PIWI proteins and EfPiwi is from a freshwater sponge; tags in brackets are library labels; higher = faster piRNA-guided slicing of the target). Details: auxiliary factor: 500 nM Ephydatia muelleri Gtsf1.
Method in brief: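 The pre-steady-state cleavage rate came from a burst-and-steady-state fit to pooled data from three Cleave-'n-Seq trials, in which uncleaved targets were sequenced and normalised to depth and to weakly complementary targets. Each reaction held 0.1 nM transcribed, DNA-blocked target RNA library and 1 nM active affinity-purified piRISC carrying one synthetic guide, with or without 500 nM GTSF1 partner protein, in HEPES–potassium acetate buffer at 33 °C for 0–8 or 0–960 min. k3 was capped at 0.0001 min^-1.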

| Sequence | pre-steady-state target cleavage rate |
| --- | --- |
| GGAGAGGAUACUACUACAACCUACUACCUCA | 0.00619 ± 0.0042 |
| GGAGUGGAUACUAUACAUGGUACUACCUCA | 0.00303 ± 0.0028 |
| GGAGACCAUACUAUACUACCUACUACGUCA | 0.0039 ± 0.0028 |
| GGAGAGGUUACUAUACAACCUACUUCCUCA | 0.0033 ± 0.002 |
| GGAGACCUAACUAAACAACCUACAACCUCA | 0.000388 ± 0.018 |
| GGAGUGGAUACUAUUCAACCUAGUACCUCA | 0.00286 ± 0.0013 |
| GGAGACCAUACUAUACAACCUACUACGUGA | 0.0051 ± 0.0028 |
| GGAGACCUAUCUAUACAACCUACUACCUCCA | 0.0208 ± 0.0083 |
| GGAGACCUUACAAUACAACGUACUACCUCA | 0.00409 ± 0.004 |
| GGAGACCUAUCAUAACAACCUACUACCUCA | 0.00531 ± 0.0037 |
| GGAGACCUAUCUAUACAACGUUCUACCUCA | 0.00118 ± 0.0051 |
| GGAGACCUAUGAUAUGUUGCUACUACGACA | 0.00097 ± 0.0049 |
| GGAGAGGAUUCUAUACAACCUAGUACCUCA | 0.00123 ± 0.0023 |
| GGAGACCUUACUAUACUACCUACUACGUCA | 0.000415 ± 0.0057 |
| GGAGACCUAUGUUUACAAGCUACUACCUCA | 0.00111 ± 0.0052 |
| GGAGACCUAUGUAUACAAGGUACUACCUCA | 0.00169 ± 0.004 |
| GGAGACCUAUGAUAUGUUGGUAUCUACCUCA | 0.000108 ± 0.032 |
| GGAGAGGAUUCUAUACAACCUACUACGUCA | 0.00169 ± 0.0031 |
| GGAGACCUAUGUAUACAUCCUACUAGCUCA | 0.000368 ± 0.0049 |
| GGAGACCUAUGUAUACAACCUACUACUCA | 0.000409 ± 0.011 |

| Sequence | pre-steady-state target cleavage rate |
| --- | --- |
| GGAGAGGAUUCUUUACAACCUACUACCUCA | 0.0017 ± 0.0068 |
| GGAGACCUAACUAUACAACCUACUCACCUCA | 0.00244 ± 0.0048 |
| GGAGUGGAUACUAUACAUCCUACUACCUGA | 0.00497 ± 0.0018 |
| GGAGACCAUACUUUACAACCUACUACCUGA | 0.00591 ± 0.0031 |
| GGAGACCUAUGAUAUGUUGCAACUACCUCA | 0.000472 ± 0.0077 |
| GGAGACCAUUCUAUAGAACCUACUACCUCA | 0.0023 ± 0.0042 |
| GGAGACCUUACUAUACAACCUACUAACUCA | 0.00261 ± 0.0027 |
| GGAGACGAUACUAUACAAUCUACUACCUCA | 0.00912 ± 0.0039 |
| GGAGACGAUACUAUUCAACCUACUAGCUCA | 0.0042 ± 0.002 |
| GGAGACCUAUGUAUACAUCCUACUACCUCA | 0.00183 ± 0.0039 |
| GGAGUGGAUACUAUACAUCCAACUACCUCA | 0.00457 ± 0.0019 |
| GGAGACCAUACUAUUGUACCUACUACCUCA | 0.00237 ± 0.0038 |
| GGAGACCAUACUAUACAACCUAGCUACCUCA | 0.00373 ± 0.0029 |
| GGAGACCUUACUAUACAACCUACGUACCUCA | 0.00274 ± 0.006 |
| GGAGACCAUACUAUACAACCUACUGCCUCA | 0.00606 ± 0.0025 |
| GGAGACCUAUCUAUACAACCUACUACCAGA | 0.00327 ± 0.0026 |
| GGAGACCUAUGAUAUGAAACCUACUACCUCA | 0.000642 ± 0.0078 |
| GGAGACCUAACUAUACAACCUACUUCGUCA | 0.00192 ± 0.0033 |
| GGAGACCUAUCUAUAGAACCUACUACCUCA | 0.0013 ± 0.0043 |
| GGAGACCUAUGUCAUACAACCUACUACCUCA | 0.00679 ± 0.0034 |

Shown with tabs: entries from further up
Sequence	pre-steady-state target cleavage rate
GGAGACGAUACUAUACAAUCUACUACCUCA	0.00912 ± 0.0039
GGAGACGAUACUAUUCAACCUACUAGCUCA	0.0042 ± 0.002

From the supplement of paper PMC10338343
